{"source": "paper PMC8122397", "about": "“Synthesis of New Triazolopyrazine Antimalarial Compounds” (Molecules, 2021)", "test_system": "Plasmodium falciparum 3D7 (chloroquine-sensitive strain)", "test": "In vitro anti-plasmodial image-based asexual assay, 3D7 strain", "assay_type": "cell-based", "details": "SI = HEK293 IC50/parasite IC50", "protocol": "The semisynthesized/functionalized triazolopyrazine compounds and the scaffold triazolopyrazine precursors, compounds 1–18, were tested for their antimalarial activity against the 3D7 (chloroquine-sensitive strain) and Dd2 (chloroquine, pyrimethamine, and mefloquine resistant strain) P. falciparum. Where an accurate IC50 value could not be determined due to 100% growth inhibition and a plateau not being reached, but where ≥90% growth inhibition was attained at the top screening concentration, an estimated IC50 value was calculated.\nPlsamodium falciparum 3D7 and Dd2 parasites were cultured in RPMI1640 (Life Technologies, Camarillo, CA, USA) supplemented with 2.5 mg/mL Albumax II, 5% AB human serum, 25 mM HEPES, and 0.37mM hypoxanthine. Ring stage parasites were treated with compounds following two rounds of sorbitol synchronization, as previously described. Artesunate and pyrimethamine were incorporated as controls. Following incubation of assay plates for 72 h at 37 °C, and 5% CO2 and 5% O2, parasites were stained with 2-(4-amidinophenyl)-1H-indole-6-carboxamidine (DAPI) and imaged using an Opera QEHS confocal imaging system (PerkinElmer, Waltham, MA, USA). Images were analyzed, as previously described, using Acapella spot detection software (PerkinElmer, Waltham, MA, USA). […]", "data": [{"smiles": "C[Si](C)(C)CCOc1cncc2nnc(-c3ccc(OC(F)F)cc3)n12", "note": "[Compound 5]", "values": [{"measurement": "SI for 3D7", "value": ">5"}]}]}
